# Where “and” joins values, the source holds several entries; their conditions need not be identical. Equal entries are not always repeated. ± gives the standard deviation of the averaged measurements. Over roughly 3,800 compounds, “cell shape (eccentricity) Z-score vs DMSO control” has its median near 1.1; the lowest 2% begin near -4.7. Some of the results follow.
# Test system: human monocyte-derived macrophages (M0)
# Experiment: cell shape (eccentricity) Z-score vs DMSO control; higher = more elongated, M2-like morphology
# Conditions: 20 µM; 24 h; macrophage state: M0 (M-CSF)
row,SMILES,cell shape (Z-score)
1,CCS(=O)(=O)N(C)[C@H]1c2cc(C#N)ccc2OC(C)(C)[C@@H]1O,0.869
2,O=C(NCCN1CCCCC1)c1ccc(I)cc1,7.59
3,CCN(CC)C(=O)c1ccc(O)c(OC)c1,-0.468
4,COC(=O)C=Cc1cc(O)ccc1O,-1.27
5,CNC(=O)c1cc2c(cn1)[nH]c1ccccc12,0.782
6,COC(=O)c1cc(O)cc(OC)c1Oc1c(Cl)c(C)c(Cl)c(O)c1C(=O)O,1.39
7,C[C@@H]1O[C@@H](O[C@@H]2[C@@H](O)[C@H](Oc3c(-c4ccc(O)cc4)oc4cc(O)cc(O)c4c3=O)O[C@H](CO)[C@H]2O)[C@H](O)[C@H](O)[C@H]1O,0.71
8,C[C@]12CCC(=O)C=C1CCC1C2[C@@H](O)C[C@@]2(C)C1CC[C@]2(O)C(=O)COC(=O)CCC(=O)O (some centres not stated),-1.19
9,C=CCc1cccc(/C=N/NC(=O)CN2CCN(Cc3ccccc3)CC2)c1O,-0.15
10,CCCCCCCCN1C(=O)C(C(C)=O)=C(C)C1(C)O (configuration not stated),2.73
11,CCCc1nc(C)c2c(=O)[nH]c(-c3cc(S(=O)(=O)N4CCN(CC)CC4)ccc3OCC)nn12,2.12
12,O=C(O)C[C@H](O)C[C@H](O)/C=C/c1c(C2CC2)nc2ccccc2c1-c1ccc(F)cc1,7.49
13,CCN1CCCC(OC(=O)C(c2ccccc2)c2ccccc2)C1 (configuration not stated),1.7
14,N[C@@H](Cc1cc(I)c(Oc2cc(I)c(O)c(I)c2)c(I)c1)C(=O)O,1.99
15,CC(C(=O)O)c1ccc(C(=O)c2cccs2)cc1 (configuration not stated),1.76
16,COc1ccc([C@@H]2Sc3ccccc3NC(=O)[C@@H]2O)cc1,1.73
17,CCCOc1ccc2[nH]c(NC(=O)OC)nc2c1,-1.59
18,CC(CCC(=O)NCC(=O)O)C1CCC2C3CCC4CC(O)CCC4(C)C3CC(O)C12C (configuration not stated),4.22
19,CNc1ccccc1C(=O)OC1OC(C)C(O)C(O)C1O (configuration not stated),-2.09
20,CCCc1c(C(=O)O)c(O)cc2c1C(=O)c1c(O)cccc1C2=O,2.8
21,COc1cc(SC)ccc1C(=O)N1CCC(Cc2ccccc2)CC1,2.8
22,COC(=O)C1=C(C)NC(C)=C([N+](=O)[O-])[C@@H]1c1ccccc1C(F)(F)F,0.903
23,COC(=O)C1=CO[C@@H](O[C@@H]2O[C@H](CO)[C@@H](O)[C@H](O)[C@H]2O)C2C1CC(O)C2C (some centres not stated),2.67

row,SMILES,cell shape (Z-score)
1,CC(=O)OC(C[C@@]1(C)[C@H](C)[C@H](OC(C)=O)C[C@@]23COC(=O)C2=CCC[C@@H]31)c1ccoc1 (some centres not stated),3.03
2,CCn1c(=O)c2c(nc(C=Cc3ccc(OC)c(OC)c3)n2C)n(CC)c1=O,2.33
3,CS(=O)(=O)N1CCN(Cc2cc3nc(-c4cccc5[nH]ncc45)nc(N4CCOCC4)c3s2)CC1,-3.32
4,C[C@]1(c2nc3c(C(N)=O)cccc3[nH]2)CCCN1,3.49
5,O=C(CCc1ccc(O)cc1)CC(CCc1ccc(O)cc1)O[C@@H]1O[C@H](CO)[C@@H](O)[C@H](O)[C@H]1O (some centres not stated),-3.05
6,CCCOc1ccccc1-c1nc2[nH]nnc2c(=O)[nH]1,1.55
7,C[C@H](CCC(=O)O)[C@H]1CCC2[C@@H]3CC[C@@H]4C[C@H](O)CC[C@]4(C)C3C=C[C@@]21C (some centres not stated),-2.01
8,CC1OC(OCC2OC(Oc3c(-c4ccc(O)c(O)c4)oc4cc(O)cc(O)c4c3=O)C(O)C(O)C2O)C(O)C(O)C1O (configuration not stated),0.225
9,CC(=O)OCC(Cc1ccccc1)NC(=O)C(Cc1ccccc1)NC(=O)c1ccccc1 (configuration not stated),0.368
10,O=C(CCCN1CCN(c2ccccn2)CC1)c1ccc(F)cc1,1.5
11,COc1cc(-c2ccc(=O)[nH]n2)ccc1OC(F)F,6.73
12,CC(C)Cc1ccc(C(C)C(=O)O)cc1 (configuration not stated),0.485
13,COc1cc(NS(=O)(=O)c2ccc(N)cc2)ncn1,1.52
14,CC(C)(Oc1ccc(Cl)cc1)C(=O)OCCOC(=O)c1cccnc1,-0.543
15,CC(C)=CCc1c(O)cc(O)c2c(=O)cc(-c3ccc(O)cc3)oc12,0.624
16,Cc1cc(NC(=O)C2C(=O)c3ccccc3S(=O)(=O)N2C)no1 (configuration not stated),6.33
17,CN(C(=O)CN(CCO)CC(=O)N(C)C(C)(C)Cc1ccccc1)C(C)(C)Cc1ccccc1,0.879
18,CC1=CC(=O)CC2[C@@]1(C)CC[C@@H](C)[C@]2(C)CCC(C)CC(=O)O (some centres not stated),-1.95
19,Cc1nc(-c2ccc(OCC(C)C)c(C#N)c2)sc1C(=O)O,0.295
20,CN(Cc1ccccc1)Cc1ccccc1,-0.715
21,C/C(=C\CC[C@@H](C)[C@H]1CC[C@@]2(C)C3CC[C@H]4C(C)(C)[C@@H](OC5OC(CO)C(OC6OC(CO)C(O)C(O)C6O)C(O)C5O)CC[C@@]45C[C@@]35CC(O)[C@]12C)C(=O)O (some centres not stated),0.155
22,Oc1cccc(-c2nc(N3CCOCC3)c3oc4ncccc4c3n2)c1,5.34
23,O=C(c1ccc(OCCN2CCCCC2)cc1)c1c(-c2ccc(O)cc2)sc2cc(O)ccc12,0.689

# A draw from above in order of molar mass, largest number first:
row,SMILES,cell shape (Z-score)
3,CS(=O)(=O)N1CCN(Cc2cc3nc(-c4cccc5[nH]ncc45)nc(N4CCOCC4)c3s2)CC1,-3.32
23,O=C(c1ccc(OCCN2CCCCC2)cc1)c1c(-c2ccc(O)cc2)sc2cc(O)ccc12,0.689
17,CN(C(=O)CN(CCO)CC(=O)N(C)C(C)(C)Cc1ccccc1)C(C)(C)Cc1ccccc1,0.879
8,C[C@]12CCC(=O)C=C1CCC1C2[C@@H](O)C[C@@]2(C)C1CC[C@]2(O)C(=O)COC(=O)CCC(=O)O (some centres not stated),-1.19
18,CC(CCC(=O)NCC(=O)O)C1CCC2C3CCC4CC(O)CCC4(C)C3CC(O)C12C (configuration not stated),4.22
9,CC(=O)OCC(Cc1ccccc1)NC(=O)C(Cc1ccccc1)NC(=O)c1ccccc1 (configuration not stated),0.368
12,O=C(O)C[C@H](O)C[C@H](O)/C=C/c1c(C2CC2)nc2ccccc2c1-c1ccc(F)cc1,7.49
6,COC(=O)c1cc(O)cc(OC)c1Oc1c(Cl)c(C)c(Cl)c(O)c1C(=O)O,1.39
23,COC(=O)C1=CO[C@@H](O[C@@H]2O[C@H](CO)[C@@H](O)[C@H](O)[C@H]2O)C2C1CC(O)C2C (some centres not stated),2.67
2,CCn1c(=O)c2c(nc(C=Cc3ccc(OC)c(OC)c3)n2C)n(CC)c1=O,2.33
7,C[C@H](CCC(=O)O)[C@H]1CCC2[C@@H]3CC[C@@H]4C[C@H](O)CC[C@]4(C)C3C=C[C@@]21C (some centres not stated),-2.01
14,CC(C)(Oc1ccc(Cl)cc1)C(=O)OCCOC(=O)c1cccnc1,-0.543
10,O=C(CCCN1CCN(c2ccccn2)CC1)c1ccc(F)cc1,1.5
19,Cc1nc(-c2ccc(OCC(C)C)c(C#N)c2)sc1C(=O)O,0.295
16,COc1ccc([C@@H]2Sc3ccccc3NC(=O)[C@@H]2O)cc1,1.73
4,C[C@]1(c2nc3c(C(N)=O)cccc3[nH]2)CCCN1,3.49
20,CN(Cc1ccccc1)Cc1ccccc1,-0.715
12,CC(C)Cc1ccc(C(C)C(=O)O)cc1 (configuration not stated),0.485
4,COC(=O)C=Cc1cc(O)ccc1O,-1.27

# Further entries:

row,SMILES,cell shape (Z-score)
1,COc1cc2c(cc1OC)-c1cc3ccc(OC)c(OC)c3c[n+]1CC2,0.786
2,CCCCCc1c2c(cc(O)c1C(=O)O)OC(=O)c1c(cc(OC)cc1C(=O)CCCC)O2,5.03
3,O=c1oc(-c2ccc(C(F)(F)F)cc2)nn1Cc1cc(Cl)ccc1O,1.08
4,C[C@@H]1O[C@@H](Oc2cc(O)c3c(=O)c(O[C@@H]4O[C@@H](C)[C@H](O[C@@H]5O[C@@H](C)[C@H](O)[C@@H](O)[C@H]5O)[C@@H](O)[C@H]4O)c(-c4ccc(O)cc4)oc3c2)[C@H](O)[C@H](O)[C@H]1O,6.14
5,COc1cc(OC)c2c(c1)OC(c1ccccc1)CC2=O (configuration not stated),3.11
6,C=C(C(=O)O[C@H]1CC=C(C)C[C@H](O)[C@H]2[C@H](C)C(=O)O[C@@H]2/C=C/1C)[C@@H]1CCC(=C)[C@@H]2C[C@H](O[C@@H]3O[C@H](CO[C@H]4OC[C@](O)(CO)[C@H]4O)[C@@H](O)[C@H](O)[C@H]3O)C(=C)[C@@H]2C1,-4.65
7,CC(C)(CO)C(O)C(=O)NCCC(=O)NCCSSCCNC(=O)CCNC(=O)C(O)C(C)(C)CO (configuration not stated),1.73
8,CC1(C)CC[C@@]2(C(=O)O)C(C1)C1=CCC3[C@@]4(C)CC[C@H](O[C@@H]5O[C@H](C(=O)O)[C@@H](O[C@@H]6OC[C@@H](O)[C@H](O)[C@H]6O)[C@H](O)[C@H]5O)C(C)(C)C4CC[C@@]3(C)[C@]1(C)C[C@H]2O (some centres not stated),0.257
9,Cc1c(O)cc2c(c1O)C(=O)CC(c1ccc(O)cc1)O2 (configuration not stated),-2.24
10,COc1cc(-c2coc3cc(OCc4ccccc4)c(OC)c(O)c3c2=O)cc(O)c1OC,0.701
11,CC1(C)CC[C@]2(C(=O)O[C@@H]3OC[C@H](O[C@@H]4OC[C@H](O)[C@H](O)[C@H]4O)[C@H](O)[C@H]3O)CC[C@]3(C)C(=CCC4[C@@]5(C)C[C@H](O)[C@H](O[C@@H]6O[C@H](C(=O)O)[C@@H](O)[C@H](O[C@@H]7OC[C@H](O)[C@H](O)[C@H]7O)[C@H]6O)[C@@](C)(CO)C5CC[C@]43C)[C@@H]2C1 (some centres not stated),-3.31
12,CCOC(=O)Nc1nc2ccccc2[nH]1,0.525
13,O=C(O)c1cc([N+](=O)[O-])ccc1NCCCc1ccccc1,4.91
14,CS(=O)(=O)c1ccc(C(O)[C@H](CF)NC(=O)C(Cl)Cl)cc1 (some centres not stated),0.775
15,Nc1nc(Nc2ccccc2)nc2c1ncn2C1OC(CO)C(O)C1O (configuration not stated),7.34
16,CC(=O)Nc1ccc(OC(=O)c2ccccc2O)cc1,2.47
17,Cc1ccc(F)c(NC(=O)Nc2ccc(-c3cccc4[nH]nc(N)c34)cc2)c1,-2.2
18,C[C@@H]1CC[C@]2(C(=O)OC3OC(CO)C(OC4OC(CO)C(O)C(O)C4O)C(O)C3O)CC[C@]3(C)C(=CCC4[C@@]5(C)CC[C@H](O)[C@](C)(C(=O)O)C5CC[C@]43C)C2[C@]1(C)O (some centres not stated),0.609
19,OCc1ccccc1O[C@@H]1O[C@H](CO)[C@@H](O)[C@H](O)[C@H]1O,2.23
20,COc1cc(OC)c(NC(=O)Nc2cc(C)on2)cc1Cl,1.96
21,COc1cc(OC)c2ccc(=O)oc2c1,1.58
22,c1cnc(N2CCN(Cc3ccc4c(c3)OCO4)CC2)nc1,0.297
23,NC(=O)Cc1ccc(O)c(Cl)c1,0.222

row,SMILES,cell shape (Z-score)
1,O=C(O)c1ccccc1Nc1ccccc1,2.81
2,CCN(CCCCOC(=O)c1ccc(OC)c(OC)c1)C(C)Cc1ccc(OC)cc1 (configuration not stated),-3.63
3,CCCCCCOc1ccccc1C(N)=O,7.11
4,CC(=O)c1cc2ccccc2oc1=O,3.02
5,O=c1cc(-c2ccccc2)oc2cc(O)ccc12,4.41
6,CCN(CC)CCNC(=O)c1ccc(N)cc1,0.846
7,CC(=O)NC(Cc1ccccc1)C(=O)O (configuration not stated),1.6
8,CN1Cc2c(C(=O)OC(C)(C)C)ncn2-c2ccsc2C1=O,0.413
9,C/C=C/c1ccc(O)cc1C(=O)C(C)O (configuration not stated),0.694 ± 1.1
10,COC1C(O)C(CO)OC1n1cnc2c(NC3CCCCC3)ncnc21 (configuration not stated),1.49
11,CC(O)CCCc1cc(O)cc(O[C@@H]2O[C@H](CO)[C@@H](O)[C@H](O)[C@H]2O)c1 (some centres not stated),0.302
12,CN(C(=O)CCCOc1ccc2[nH]c(=O)ccc2c1)C1CCCCC1,2.14 and 3.02
13,COc1c(OC)c2c(C)cccc2oc1=O,3.28
14,CC1(C)CC[C@]2(C(=O)O)CC[C@]3(C)C(=CCC4[C@@]5(C)CC[C@@H](O)C(C)(C)C5CC[C@]43C)C2C1 (some centres not stated),9.58
15,N#CC(=Cc1ccc(O)c(O)c1)C(=O)Nc1ccccc1,-0.32
16,O=P(O)(O)C(Sc1ccc(Cl)cc1)P(=O)(O)O,1.64
17,NC[C@@H]1O[C@H](c2ccccc2)Cc2c1ccc(O)c2O,2.59
18,O=c1cc(-c2ccc(O)cc2)oc2cc(O[C@@H]3O[C@H](CO)[C@@H](O)[C@H](O)[C@H]3O[C@@H]3OC[C@](O)(CO)[C@H]3O)cc(O)c12,2.06
19,O=C(Nc1ccc(Cl)cc1)Nc1ccc(Cl)c(C(F)(F)F)c1,-1.14
20,Oc1ccccc1-c1nnco1,-0.599
21,CCC(C)(C)N=C(NC#N)Nc1cccnc1,-3.06
22,CCOC(=O)C1=C(C)NC(=S)NC1c1cccc(O)c1 (configuration not stated),0.93
23,O=c1cc(-c2ccccc2)oc2ccc(O)cc12,5.06 ± 3.6
